Test results: publication PMC13462943
No constants are given. Whether binding was seen depends on the method and setting. Some binding calls cover weakened binding; strength is not graded here.

Chains of the proteins cited; added tags and fusions are not shown. Lines headed by an entry give the natural chain unless they say otherwise; changes in a name come on top. A line that says so, or that is headed by a name, gives the form on record, which may keep a tag or linker. Residues count along the entry.
G9a (aa residues 601-1193), ankyrin repeats and methyltransferase domain, wild type (Q96KQ7, residues 601-1193): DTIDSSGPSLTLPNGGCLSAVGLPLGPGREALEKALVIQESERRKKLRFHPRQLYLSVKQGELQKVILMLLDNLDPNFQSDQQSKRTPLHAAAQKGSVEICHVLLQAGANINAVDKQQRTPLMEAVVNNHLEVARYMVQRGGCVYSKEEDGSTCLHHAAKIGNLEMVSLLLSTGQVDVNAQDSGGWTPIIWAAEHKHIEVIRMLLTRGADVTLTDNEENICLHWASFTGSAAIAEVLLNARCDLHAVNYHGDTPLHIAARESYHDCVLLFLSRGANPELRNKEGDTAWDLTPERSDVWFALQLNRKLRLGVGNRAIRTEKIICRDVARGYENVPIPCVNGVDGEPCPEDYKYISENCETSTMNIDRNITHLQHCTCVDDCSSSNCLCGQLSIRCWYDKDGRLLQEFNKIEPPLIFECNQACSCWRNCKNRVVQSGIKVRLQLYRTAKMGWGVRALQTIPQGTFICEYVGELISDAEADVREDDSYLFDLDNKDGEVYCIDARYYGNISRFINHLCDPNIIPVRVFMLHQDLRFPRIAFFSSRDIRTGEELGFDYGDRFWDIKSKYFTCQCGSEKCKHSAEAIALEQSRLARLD
G9a (aa residues 601-1193), ankyrin repeats and methyltransferase domain, Del 1076-9 (Q96KQ7, form named): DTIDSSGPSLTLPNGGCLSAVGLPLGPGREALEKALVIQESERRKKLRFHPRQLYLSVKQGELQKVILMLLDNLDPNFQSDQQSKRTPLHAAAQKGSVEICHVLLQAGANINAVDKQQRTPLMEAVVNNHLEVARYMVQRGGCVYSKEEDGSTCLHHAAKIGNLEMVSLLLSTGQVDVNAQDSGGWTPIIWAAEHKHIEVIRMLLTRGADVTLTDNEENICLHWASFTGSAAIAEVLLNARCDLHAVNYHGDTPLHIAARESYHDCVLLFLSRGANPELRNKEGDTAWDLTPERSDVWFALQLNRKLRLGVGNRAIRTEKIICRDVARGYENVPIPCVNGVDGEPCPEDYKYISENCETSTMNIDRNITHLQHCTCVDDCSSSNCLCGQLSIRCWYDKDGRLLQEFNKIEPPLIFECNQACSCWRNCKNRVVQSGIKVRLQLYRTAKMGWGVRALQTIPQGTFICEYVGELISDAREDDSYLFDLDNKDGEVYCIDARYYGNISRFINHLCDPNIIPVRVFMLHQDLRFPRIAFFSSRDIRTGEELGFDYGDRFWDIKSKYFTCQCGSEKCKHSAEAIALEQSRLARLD
G9a (aa residues 601-1193), ankyrin repeats and methyltransferase domain, A1077S (Q96KQ7, form named): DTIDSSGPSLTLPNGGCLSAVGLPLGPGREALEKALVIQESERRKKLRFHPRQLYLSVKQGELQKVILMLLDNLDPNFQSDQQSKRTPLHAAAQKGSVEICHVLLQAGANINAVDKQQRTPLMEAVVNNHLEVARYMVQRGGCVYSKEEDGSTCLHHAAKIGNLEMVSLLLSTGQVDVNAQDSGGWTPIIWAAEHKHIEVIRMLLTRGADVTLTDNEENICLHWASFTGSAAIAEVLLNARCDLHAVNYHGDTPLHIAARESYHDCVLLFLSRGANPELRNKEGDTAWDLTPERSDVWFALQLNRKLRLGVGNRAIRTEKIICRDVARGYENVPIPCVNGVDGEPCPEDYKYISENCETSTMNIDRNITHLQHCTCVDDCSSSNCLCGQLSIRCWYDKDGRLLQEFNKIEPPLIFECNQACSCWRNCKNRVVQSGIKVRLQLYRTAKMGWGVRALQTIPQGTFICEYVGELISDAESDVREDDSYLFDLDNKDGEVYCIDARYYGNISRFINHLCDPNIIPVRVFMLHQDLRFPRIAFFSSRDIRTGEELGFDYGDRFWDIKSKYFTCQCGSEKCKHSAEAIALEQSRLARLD
UniProt Q9H9B1, residues 710-1285: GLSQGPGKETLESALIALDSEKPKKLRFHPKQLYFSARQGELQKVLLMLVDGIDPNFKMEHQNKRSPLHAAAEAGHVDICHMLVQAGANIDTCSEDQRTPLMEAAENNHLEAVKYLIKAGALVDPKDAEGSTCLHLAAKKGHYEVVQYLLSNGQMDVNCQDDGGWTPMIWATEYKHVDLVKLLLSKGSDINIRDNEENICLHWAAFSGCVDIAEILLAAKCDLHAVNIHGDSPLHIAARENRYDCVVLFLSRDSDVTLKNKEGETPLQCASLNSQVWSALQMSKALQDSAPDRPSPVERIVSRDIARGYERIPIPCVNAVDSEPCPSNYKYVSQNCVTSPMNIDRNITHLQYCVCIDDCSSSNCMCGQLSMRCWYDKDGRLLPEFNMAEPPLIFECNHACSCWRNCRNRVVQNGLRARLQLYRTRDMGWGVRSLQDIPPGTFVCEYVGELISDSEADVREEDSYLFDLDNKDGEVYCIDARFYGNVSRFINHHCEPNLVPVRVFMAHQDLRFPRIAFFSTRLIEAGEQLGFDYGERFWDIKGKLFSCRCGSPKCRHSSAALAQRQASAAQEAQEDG

Columns and labels:
Test in all cases: native MS; GLP-G9a heterodimers co-expressed in E. coli and purified together; 5 µM in 150 mM ammonium acetate pH 7.5, 0.5 mM DTT; both purified
[1] = target: G9a (aa residues 601-1193), ankyrin repeats and methyltransferase domain, Del 1076-9 (human) (UniProt Q96KQ7)
[2] = target: G9a (aa residues 601-1193), ankyrin repeats and methyltransferase domain, A1077S (human) (UniProt Q96KQ7)
[3] = target: G9a (aa residues 601-1193), ankyrin repeats and methyltransferase domain, wild type (human) (UniProt Q96KQ7)

Measured: binding

GLP (aa residues 710-1285), ankyrin repeats and methyltransferase domain (from UniProt Q9H9B1-1 710-1285) (domain or fragment)
binds: all assays above
